In the supplement of paper PMC9015667:
Where a name gives a salt, the structure may show the parent alone. This is one part of the list. Many values rest on one well or one pass, so single values are uncertain.

Each compound was assayed on M249R (matched melanoma line resistant to BRAF inhibitors) (assay: reduction in cell viability relative to untreated/vehicle; higher = more growth inhibition). Details: 200 nM; 72 h.
For `CCC[C@@H]1C[C@@H](C(=O)N[C@@H]([C@H]2O[C@H](SC)[C@H](O)[C@@H](O)[C@H]2O)[C@H](C)Cl)N(C)C1` [Clindamycin hydrochloride], the “reduction in cell viability” value was less than 0%. In the case of `CCCCOc1ccc(CC(=O)NO)cc1` [Bufexamac], the “reduction in cell viability” value is reported as less than 0%. In the case of `CCCCCNC(=O)N1CCC(CN(Cc2ccc(Cl)cc2)Cc2ccc([N+](=O)[O-])s2)C1` (centres undefined), the “reduction in cell viability” value is reported as less than 0%. In the case of `NC(=O)c1cccc(-c2cccc(OC(=O)NC3CCCCC3)c2)c1`, the “reduction in cell viability” value is reported as less than 0%. With `COC1=C2C[C@@H](C)C[C@H](OC)[C@H](O)[C@@H](C)/C=C(\C)[C@H](OC(N)=O)[C@@H](OC)/C=C\C=C(/C)C(=O)NC(=CC1=O)C2=O` [Geldanamycin] the “reduction in cell viability” value was less than 0%. For `Cn1cc(/C=C/C(=O)c2cccc(F)c2)cc1/C=C/C(=O)NO`, the “reduction in cell viability” value was less than 0%. For `Clc1ccc(CCC(Cn2ccnc2)Sc2c(Cl)cccc2Cl)cc1` (centres undefined) [Butoconazole nitrate], the “reduction in cell viability” value was less than 0%. In the case of `CCOc1ccc(Nc2nc(-c3c(C)nc4ccccn34)cs2)cc1`, the “reduction in cell viability” value is reported as 46.8%. For `Nc1nc(=O)n([C@H]2C[C@H](O)[C@@H](CO)O2)cc1F`, the “reduction in cell viability” value was less than 0%. With `C=CC(=O)N1CCC[C@@H](n2nc(-c3ccc(Oc4ccccc4)cc3)c3c(N)ncnc32)C1` the “reduction in cell viability” value was less than 0%. For `O=C1CCCC(=O)C1C(=O)c1ccc(C(F)(F)F)cc1[N+](=O)[O-]` [Nitisinone], the “reduction in cell viability” value was less than 0%. For `CCn1c(-c2nonc2N)nc2cnc(Oc3cccc(NC(=O)c4ccc(OCCN5CCOCC5)cc4)c3)cc21`, the “reduction in cell viability” value was less than 0%. In the case of `CC[C@H](CO)Nc1nc(NCc2ccccc2)c2ncn(C(C)C)c2n1` [Seliciclib], the “reduction in cell viability” value is reported as less than 0%. For `CCOC(=O)N1CCN(/[N+]([O-])=N/Oc2cc(O/N=[N+](\[O-])N3CCN(C(=O)OCC)CC3)c([N+](=O)[O-])cc2[N+](=O)[O-])CC1` [Double JS-K], the “reduction in cell viability” value was less than 0%. `CN(Cc1cc(Br)cc(Br)c1N)C1CCCCC1` [Bromhexine hydrochloride] was tested, and the “reduction in cell viability” value was less than 0%. For `Fc1cc(-c2cccc3ncc(-c4cnn(C5CCNCC5)c4)nc23)cc(F)c1CN1CCOCC1`, the “reduction in cell viability” value was less than 0%. `COc1ccc(-n2nc(C(N)=O)c3c2C(=O)N(c2ccc(N4CCCCC4=O)cc2)CC3)cc1` [Apixaban] was tested, and the “reduction in cell viability” value was less than 0%. For `CCCCC(F)(F)[C@@]1(O)CC[C@H]2[C@@H](CC(=O)[C@@H]2CCCCCCC(=O)O)O1` [Lubiprostone], the “reduction in cell viability” value was less than 0%. In the case of `CC[C@]1(O)C[C@@H]2CN(CCc3c([nH]c4ccccc34)[C@@](C(=O)OC)(c3cc4c(cc3OC)N(C)[C@H]3[C@@](O)(C(=O)OC)[C@H](OC(C)=O)[C@]5(CC)C=CCN6CC[C@]43[C@@H]65)C2)C1` [Vinblastine], the “reduction in cell viability” value is reported as 39.1%. `CCN(CC)CCOc1ccc(C(=C(Cl)c2ccccc2)c2ccccc2)cc1` [Clomifene citrate] was tested, and the “reduction in cell viability” value was less than 0%. In the case of `CCN(CC)CCCCNc1nc2cc(Cl)c(Cl)cc2nc1-c1ccc(-c2cccs2)s1`, the “reduction in cell viability” value is reported as less than 0%. For `NNCCc1ccccc1` [Phenelzine], the “reduction in cell viability” value was less than 0%. With `C[C@H](NC(=O)Cc1cc(F)cc(F)c1)C(=O)N[C@@H]1C(=O)N(C)c2ccccc2-c2ccccc21` the “reduction in cell viability” value was less than 0%. `CCN(CC)CCCC(C)Nc1nc(C)cc(Nc2ccc3nc(C)cc(N)c3c2)n1` (centres undefined) was tested, and the “reduction in cell viability” value was less than 0%. In the case of `Cc1cc2nc3c(=O)[nH]c(=O)nc-3n(C[C@H](O)[C@H](O)[C@H](O)CO)c2cc1C`, the “reduction in cell viability” value is reported as less than 0%. For `Nc1ccn([C@@H]2O[C@H](CO)[C@@H](O)[C@H]2O)c(=O)n1` [Cytidine], the “reduction in cell viability” value was less than 0%. In the case of `O=S(=O)(O)CCS` [Mesna], the “reduction in cell viability” value is reported as less than 0%. With `CNC(=O)c1cc(Oc2ccc(NC(=O)Nc3ccc(Cl)c(C(F)(F)F)c3)cc2)ccn1` [Sorafenib] the “reduction in cell viability” value was less than 0%. With `O=C(c1ccc(Nc2nccc(-c3cc4ccccc4s3)n2)cc1)N1CCC(N2CCCC2)CC1` the “reduction in cell viability” value was less than 0%. With `COC(=O)N1CCN(Cc2cccc(NC(=O)Nc3ccc(C)nc3)c2F)CC1` [Omecamtiv mecarbil] the “reduction in cell viability” value was less than 0%. For `CCC1=C[C@@H]2CN(C1)Cc1c([nH]c3ccccc13)[C@@](C(=O)OC)(c1cc3c(cc1OC)N(C)[C@H]1[C@@](O)(C(=O)OC)[C@H](OC(C)=O)[C@]4(CC)C=CCN5CC[C@]31[C@@H]54)C2` [Vinorelbine tartrate], the “reduction in cell viability” value was 50.6%. With `CC(=O)Nc1cccc(-n2c(=O)n(C3CC3)c(=O)c3c(Nc4ccc(I)cc4F)n(C)c(=O)c(C)c32)c1` [Trametinib] the “reduction in cell viability” value was 58.7%. For `CC(C)=CC[C@@H](O)C1=CC(=O)c2c(O)ccc(O)c2C1=O` [Shikonin], the “reduction in cell viability” value was less than 0%. `CC[C@@H]1/C=C(\C)C[C@H](C)C[C@H](OC)[C@H]2O[C@@](O)(C(=O)C(=O)N3CCCC[C@H]3C(=O)O[C@H](/C(C)=C/[C@@H]3CC[C@H](Cl)[C@H](OC)C3)[C@H](C)[C@@H](O)CC1=O)[C@H](C)C[C@@H]2OC` [Pimecrolimus] was tested, and the “reduction in cell viability” value was less than 0%. `S=c1nc[nH]c2nc[nH]c12` [6-mercaptopurine] was tested, and the “reduction in cell viability” value was 1.92%. In the case of `C[C@@H]1CN(c2c(F)c(N)c3c(=O)c(C(=O)O)cn(C4CC4)c3c2F)C[C@H](C)N1` [Sparfloxacin], the “reduction in cell viability” value is reported as less than 0%. For `OCCn1cc(-c2cnc3nnn(Cc4ccc5ncccc5c4)c3n2)cn1`, the “reduction in cell viability” value was less than 0%. `Cc1cncc2cccc(S(=O)(=O)N3CCCN(C(=O)CN)C[C@@H]3C)c12` [Glycyl-H-1152] was tested, and the “reduction in cell viability” value was less than 0%. `CC(O)(C#Cc1ccc2c(c1)N(c1nc(N)ncc1Cl)CC2)c1nccs1` (centres undefined) was tested, and the “reduction in cell viability” value was less than 0%.
